Test results as given in PMC10077476.
No constants are given. Whether binding was seen depends on the method and setting. In cells and extracts the contact can be indirect. A yes stands for co-enrichment or nearness to the bait. Other partners may have been found.

The chains behind the UniProt entries cited, without tags or fusion partners.
UniProt Q91YE6: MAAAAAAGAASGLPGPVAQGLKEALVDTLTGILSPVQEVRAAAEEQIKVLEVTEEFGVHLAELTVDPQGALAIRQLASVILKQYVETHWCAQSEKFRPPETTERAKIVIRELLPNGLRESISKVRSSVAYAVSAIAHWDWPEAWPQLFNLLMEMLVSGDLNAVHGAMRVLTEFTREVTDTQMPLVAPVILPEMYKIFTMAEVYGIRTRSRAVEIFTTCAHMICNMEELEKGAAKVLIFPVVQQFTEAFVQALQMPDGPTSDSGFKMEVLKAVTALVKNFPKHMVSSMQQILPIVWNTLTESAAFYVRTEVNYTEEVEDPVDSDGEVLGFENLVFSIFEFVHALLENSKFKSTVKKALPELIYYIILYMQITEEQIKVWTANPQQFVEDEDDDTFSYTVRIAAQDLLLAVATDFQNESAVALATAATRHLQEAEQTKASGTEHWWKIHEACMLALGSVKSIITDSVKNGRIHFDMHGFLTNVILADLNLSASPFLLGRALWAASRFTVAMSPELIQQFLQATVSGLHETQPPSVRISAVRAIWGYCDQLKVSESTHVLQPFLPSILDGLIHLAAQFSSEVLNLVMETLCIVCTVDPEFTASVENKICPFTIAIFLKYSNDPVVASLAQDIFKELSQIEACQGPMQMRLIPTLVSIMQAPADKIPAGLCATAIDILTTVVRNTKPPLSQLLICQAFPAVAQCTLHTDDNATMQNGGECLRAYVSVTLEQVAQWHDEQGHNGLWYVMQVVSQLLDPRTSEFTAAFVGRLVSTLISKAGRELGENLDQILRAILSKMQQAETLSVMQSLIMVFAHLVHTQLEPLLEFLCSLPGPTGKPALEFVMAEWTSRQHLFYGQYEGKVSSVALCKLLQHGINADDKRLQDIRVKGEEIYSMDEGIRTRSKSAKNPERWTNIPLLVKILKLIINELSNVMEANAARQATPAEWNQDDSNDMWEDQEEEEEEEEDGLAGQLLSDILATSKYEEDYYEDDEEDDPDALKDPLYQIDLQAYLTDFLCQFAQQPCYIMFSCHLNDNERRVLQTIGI

T1: myocardin-related transcription factor-A (endogenous, mouse aortic SMCs) (mouse (endogenous in mouse AoSMCs)) (UniProt Q8K4J6)
T1 sequence: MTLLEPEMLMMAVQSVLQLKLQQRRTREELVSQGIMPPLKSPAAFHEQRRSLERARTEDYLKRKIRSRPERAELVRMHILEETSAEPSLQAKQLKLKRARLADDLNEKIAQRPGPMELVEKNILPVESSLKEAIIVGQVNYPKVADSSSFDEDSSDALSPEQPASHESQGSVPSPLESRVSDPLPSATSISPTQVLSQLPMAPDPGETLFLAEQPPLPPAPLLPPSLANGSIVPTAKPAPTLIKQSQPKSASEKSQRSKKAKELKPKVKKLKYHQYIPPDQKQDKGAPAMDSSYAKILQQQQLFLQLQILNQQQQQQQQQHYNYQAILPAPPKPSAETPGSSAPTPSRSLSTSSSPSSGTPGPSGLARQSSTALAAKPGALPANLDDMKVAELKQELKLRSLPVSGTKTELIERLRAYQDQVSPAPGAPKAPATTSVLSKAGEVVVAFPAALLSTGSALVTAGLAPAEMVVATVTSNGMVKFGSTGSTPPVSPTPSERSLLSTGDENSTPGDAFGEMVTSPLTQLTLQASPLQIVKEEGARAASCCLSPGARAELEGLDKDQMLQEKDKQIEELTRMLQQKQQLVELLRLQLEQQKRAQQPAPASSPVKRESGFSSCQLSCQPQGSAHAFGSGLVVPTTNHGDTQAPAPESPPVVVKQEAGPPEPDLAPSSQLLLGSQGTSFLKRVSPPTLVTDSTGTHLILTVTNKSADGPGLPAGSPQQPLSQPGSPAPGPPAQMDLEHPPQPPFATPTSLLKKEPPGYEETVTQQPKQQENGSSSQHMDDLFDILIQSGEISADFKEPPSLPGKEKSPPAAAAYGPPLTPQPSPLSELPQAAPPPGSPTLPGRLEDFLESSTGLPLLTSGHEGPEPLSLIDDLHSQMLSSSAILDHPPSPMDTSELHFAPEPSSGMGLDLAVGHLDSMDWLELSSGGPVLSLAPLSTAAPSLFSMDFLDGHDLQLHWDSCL


Biological target: T1, myocardin-related transcription factor-A (endogenous, mouse aortic SMCs) (mouse (endogenous in mouse AoSMCs))
Experiment: affinity purification with mass spectrometry; endogenous MRTF-A immunoprecipitated with an anti-MRTF-A Ab from mouse AoSMC lysates; washed immunoprecipitates analysed by LC-MS/MS

binding | Molecule
binds | importin 9 (endogenous, mouse aortic SMCs) (from UniProt Q91YE6 1-1041)
binds | Prdm6 (endogenous, mouse aortic SMCs) (protein, UniProt Q3UZD5 1-596) MLKPGDPGGSAFLKVDPAYLQHWQQLFPHGGGGGGPLKASGAALALGAPQPLQPPPPPPPPPPERAEPPPDGLRPRPASLSSTPAPSSTSASSASSCAAAAAAAALAGLSALPVAQMPVFAPLAAAAVAAEPLPPKDLCLGASAGPGPAKCGGGGGSVGDGRGVPRFRCSAEELDYYLYGQQRMEIIPLNQHTSDPNNRCDMCADNRNGECPMHGPLHSLRRLVGTSSAAAAAPPPELPEWLRDLPREVCLCTSTVPGLAYGICAAQRIQQGTWIGPFQGVLLSPEKVQTGVVRNTQHLWEIYDQDGTLQHFIDGGEPSKSSWMRYIRCARHCGEQNLTVVQYRSNIFYRACIDIPRGTELLVWYNDSYTSFFGIPLQCIAQDENLNVPSTVMEAMCRQDALQPFNKSSKLSPSGQQRSVVFPQTPCSRNFSLLDKSGPMEAGFNQINVKNQRVLASPTSTSQLHSEFSDWHLWKCGQCFKTFTQRILLQMHVCTQNPDRPYQCGHCSQSFSQPSELRNHVVTHSSDRPFKCGYCGRAFAGATTLNNHIRTHTGEKPFKCERCERSFTQATQLSRHQRMPNECKPITESPESIEVD
